Experimental data reported in patent US6548042B2, “Bis-phosphonate compounds” (priority 2000, dated 2003).

Columns and labels:
[1] = Dose estimates in reference man calculated with MIRDOSE (3.1)
[2] = administration of 1.00 GBq; cited from earlier work

Row | Compound | Estimated dose to bone surface ([1]; administration of 1.00 GBq) [Gy] | Estimated dose to the bone marrow ([1]; administration of 1.00 GBq) [Gy] | Tumour dose ([1]; assuming lesion to healthy bone dose ratio of about 10:1) [Gy/GBq] | Dose to bone surface [2] | Dose to the bladder [2] | Dose to the bone marrow [2]
1 | O=P(O)(O)C(O)(Cc1cccc([131I])c1)P(=O)(O)O [46a, 1-hydroxy(m-[^131I and ^125I]-iodophenyl)-ethylidene-1,1-bisphosphonic acid] | 7.44 | 1.10 | 74 | – | – | –
2 | ^153Sm-EDTMP | – | – | – | 5.3-8.8 Gy | 0.4-1.3 Gy | 1.20-2.00 Gy
